Test results as given in the supplement of paper PMC10849652.
Some of the results follow.

The chains behind the UniProt entries cited, without tags or fusion partners. Where a name states a change or a piece, a line headed by the entry shows the natural chain unless it says otherwise.
UniProt Q9H6U8: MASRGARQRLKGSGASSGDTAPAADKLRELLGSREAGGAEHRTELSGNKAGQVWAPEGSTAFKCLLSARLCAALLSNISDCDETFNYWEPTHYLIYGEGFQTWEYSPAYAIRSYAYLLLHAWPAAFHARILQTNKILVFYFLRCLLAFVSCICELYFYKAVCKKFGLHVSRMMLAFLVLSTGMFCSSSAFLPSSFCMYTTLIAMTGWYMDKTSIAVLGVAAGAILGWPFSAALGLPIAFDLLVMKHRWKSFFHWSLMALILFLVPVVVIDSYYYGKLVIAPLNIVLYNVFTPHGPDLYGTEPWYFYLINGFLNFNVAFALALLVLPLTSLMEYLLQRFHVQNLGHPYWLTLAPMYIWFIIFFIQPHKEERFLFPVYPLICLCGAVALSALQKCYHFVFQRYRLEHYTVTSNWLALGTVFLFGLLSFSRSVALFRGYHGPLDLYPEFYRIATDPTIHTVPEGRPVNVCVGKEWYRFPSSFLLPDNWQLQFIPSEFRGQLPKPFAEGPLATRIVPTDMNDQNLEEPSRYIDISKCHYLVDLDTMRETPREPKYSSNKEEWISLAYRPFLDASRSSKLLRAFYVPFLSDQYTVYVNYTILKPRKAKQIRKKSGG
UniProt Q9BV10: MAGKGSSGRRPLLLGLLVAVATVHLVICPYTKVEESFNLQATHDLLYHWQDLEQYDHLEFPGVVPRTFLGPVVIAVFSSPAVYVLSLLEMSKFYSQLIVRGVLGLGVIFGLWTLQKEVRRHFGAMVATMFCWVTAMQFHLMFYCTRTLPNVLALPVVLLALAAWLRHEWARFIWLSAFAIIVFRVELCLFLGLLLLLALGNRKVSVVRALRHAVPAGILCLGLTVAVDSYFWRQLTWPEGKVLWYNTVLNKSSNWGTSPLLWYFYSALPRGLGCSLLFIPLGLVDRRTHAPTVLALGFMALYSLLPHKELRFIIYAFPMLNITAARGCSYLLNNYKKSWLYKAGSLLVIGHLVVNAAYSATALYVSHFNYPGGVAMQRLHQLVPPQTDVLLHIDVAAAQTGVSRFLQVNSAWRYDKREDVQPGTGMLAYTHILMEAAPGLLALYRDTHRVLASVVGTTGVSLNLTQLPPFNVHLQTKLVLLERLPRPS
UniProt P31749: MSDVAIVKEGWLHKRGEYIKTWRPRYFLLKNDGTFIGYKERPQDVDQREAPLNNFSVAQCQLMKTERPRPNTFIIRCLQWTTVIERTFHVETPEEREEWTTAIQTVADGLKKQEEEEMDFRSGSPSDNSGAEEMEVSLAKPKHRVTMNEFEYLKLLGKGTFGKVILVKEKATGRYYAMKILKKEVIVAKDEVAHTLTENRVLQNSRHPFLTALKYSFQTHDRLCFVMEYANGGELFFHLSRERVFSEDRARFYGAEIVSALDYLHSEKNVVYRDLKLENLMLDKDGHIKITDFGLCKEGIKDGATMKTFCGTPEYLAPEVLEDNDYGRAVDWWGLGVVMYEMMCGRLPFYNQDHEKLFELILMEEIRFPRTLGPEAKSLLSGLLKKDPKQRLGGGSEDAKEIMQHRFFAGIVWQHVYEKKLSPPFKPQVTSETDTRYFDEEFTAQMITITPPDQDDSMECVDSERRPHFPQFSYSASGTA
UniProt Q96Q83: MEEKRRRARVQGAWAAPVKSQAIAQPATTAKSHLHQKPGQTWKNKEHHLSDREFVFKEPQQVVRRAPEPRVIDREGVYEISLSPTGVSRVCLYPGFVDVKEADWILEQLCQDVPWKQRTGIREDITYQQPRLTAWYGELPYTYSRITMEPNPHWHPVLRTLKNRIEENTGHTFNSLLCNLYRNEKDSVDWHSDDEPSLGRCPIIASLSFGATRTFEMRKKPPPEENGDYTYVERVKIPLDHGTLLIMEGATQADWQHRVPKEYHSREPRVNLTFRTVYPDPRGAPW
UniProt P00352: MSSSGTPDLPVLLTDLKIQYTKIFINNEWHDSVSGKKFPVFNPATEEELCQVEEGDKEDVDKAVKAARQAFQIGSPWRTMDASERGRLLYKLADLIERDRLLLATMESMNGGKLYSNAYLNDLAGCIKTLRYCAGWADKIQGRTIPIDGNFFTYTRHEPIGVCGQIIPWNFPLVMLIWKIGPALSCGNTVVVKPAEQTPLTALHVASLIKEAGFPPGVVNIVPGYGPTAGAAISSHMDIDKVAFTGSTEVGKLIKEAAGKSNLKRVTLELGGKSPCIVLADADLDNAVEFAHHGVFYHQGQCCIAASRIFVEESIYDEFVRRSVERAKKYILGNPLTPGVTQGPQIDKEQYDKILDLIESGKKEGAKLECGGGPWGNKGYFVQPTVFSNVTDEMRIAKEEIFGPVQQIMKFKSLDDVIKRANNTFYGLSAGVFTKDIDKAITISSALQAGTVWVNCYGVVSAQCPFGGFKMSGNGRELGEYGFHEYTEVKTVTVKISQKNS
UniProt Q6P6C2: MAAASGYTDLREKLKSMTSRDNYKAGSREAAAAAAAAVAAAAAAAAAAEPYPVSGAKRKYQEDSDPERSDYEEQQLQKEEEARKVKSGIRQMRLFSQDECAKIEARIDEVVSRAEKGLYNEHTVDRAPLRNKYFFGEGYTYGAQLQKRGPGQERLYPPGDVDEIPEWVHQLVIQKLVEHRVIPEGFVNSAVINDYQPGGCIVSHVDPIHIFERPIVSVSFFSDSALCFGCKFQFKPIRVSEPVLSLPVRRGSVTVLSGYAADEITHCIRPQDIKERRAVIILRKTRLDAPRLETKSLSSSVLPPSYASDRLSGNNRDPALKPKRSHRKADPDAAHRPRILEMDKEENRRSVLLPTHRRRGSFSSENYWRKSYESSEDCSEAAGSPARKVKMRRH
UniProt Q86XL3: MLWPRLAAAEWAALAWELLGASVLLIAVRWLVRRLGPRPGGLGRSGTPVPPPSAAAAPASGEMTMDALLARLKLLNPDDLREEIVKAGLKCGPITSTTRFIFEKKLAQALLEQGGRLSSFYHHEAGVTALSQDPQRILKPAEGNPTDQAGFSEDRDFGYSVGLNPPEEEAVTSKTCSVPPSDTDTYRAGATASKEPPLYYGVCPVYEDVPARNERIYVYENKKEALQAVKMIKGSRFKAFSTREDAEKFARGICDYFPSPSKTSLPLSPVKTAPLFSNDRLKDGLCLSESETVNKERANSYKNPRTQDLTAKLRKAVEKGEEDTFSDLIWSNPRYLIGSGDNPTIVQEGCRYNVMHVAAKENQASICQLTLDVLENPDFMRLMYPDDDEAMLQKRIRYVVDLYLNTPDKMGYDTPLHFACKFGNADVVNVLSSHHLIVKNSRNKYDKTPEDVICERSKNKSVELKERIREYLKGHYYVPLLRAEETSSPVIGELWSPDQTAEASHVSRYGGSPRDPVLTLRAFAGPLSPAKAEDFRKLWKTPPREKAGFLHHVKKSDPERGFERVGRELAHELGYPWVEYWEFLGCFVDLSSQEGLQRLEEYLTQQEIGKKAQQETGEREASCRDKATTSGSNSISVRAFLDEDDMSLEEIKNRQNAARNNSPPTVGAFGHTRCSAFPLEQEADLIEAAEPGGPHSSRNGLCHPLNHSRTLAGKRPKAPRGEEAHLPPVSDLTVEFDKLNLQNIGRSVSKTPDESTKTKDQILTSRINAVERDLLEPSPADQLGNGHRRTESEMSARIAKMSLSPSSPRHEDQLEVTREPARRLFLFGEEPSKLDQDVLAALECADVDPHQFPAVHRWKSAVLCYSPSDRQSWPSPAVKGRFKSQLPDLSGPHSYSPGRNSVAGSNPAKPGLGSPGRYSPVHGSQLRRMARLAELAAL
UniProt Q8IV38: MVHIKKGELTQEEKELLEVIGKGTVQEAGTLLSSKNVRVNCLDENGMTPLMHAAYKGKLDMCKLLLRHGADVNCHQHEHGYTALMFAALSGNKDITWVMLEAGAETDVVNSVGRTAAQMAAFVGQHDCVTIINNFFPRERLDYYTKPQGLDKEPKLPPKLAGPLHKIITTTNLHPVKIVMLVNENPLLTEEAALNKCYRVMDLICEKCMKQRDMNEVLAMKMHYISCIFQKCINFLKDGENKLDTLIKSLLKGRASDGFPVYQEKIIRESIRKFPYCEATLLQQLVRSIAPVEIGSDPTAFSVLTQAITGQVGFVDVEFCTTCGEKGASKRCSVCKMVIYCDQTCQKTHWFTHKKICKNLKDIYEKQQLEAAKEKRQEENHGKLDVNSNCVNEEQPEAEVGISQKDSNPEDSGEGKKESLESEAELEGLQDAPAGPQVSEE
UniProt Q9UJX5, whole entry, looked up: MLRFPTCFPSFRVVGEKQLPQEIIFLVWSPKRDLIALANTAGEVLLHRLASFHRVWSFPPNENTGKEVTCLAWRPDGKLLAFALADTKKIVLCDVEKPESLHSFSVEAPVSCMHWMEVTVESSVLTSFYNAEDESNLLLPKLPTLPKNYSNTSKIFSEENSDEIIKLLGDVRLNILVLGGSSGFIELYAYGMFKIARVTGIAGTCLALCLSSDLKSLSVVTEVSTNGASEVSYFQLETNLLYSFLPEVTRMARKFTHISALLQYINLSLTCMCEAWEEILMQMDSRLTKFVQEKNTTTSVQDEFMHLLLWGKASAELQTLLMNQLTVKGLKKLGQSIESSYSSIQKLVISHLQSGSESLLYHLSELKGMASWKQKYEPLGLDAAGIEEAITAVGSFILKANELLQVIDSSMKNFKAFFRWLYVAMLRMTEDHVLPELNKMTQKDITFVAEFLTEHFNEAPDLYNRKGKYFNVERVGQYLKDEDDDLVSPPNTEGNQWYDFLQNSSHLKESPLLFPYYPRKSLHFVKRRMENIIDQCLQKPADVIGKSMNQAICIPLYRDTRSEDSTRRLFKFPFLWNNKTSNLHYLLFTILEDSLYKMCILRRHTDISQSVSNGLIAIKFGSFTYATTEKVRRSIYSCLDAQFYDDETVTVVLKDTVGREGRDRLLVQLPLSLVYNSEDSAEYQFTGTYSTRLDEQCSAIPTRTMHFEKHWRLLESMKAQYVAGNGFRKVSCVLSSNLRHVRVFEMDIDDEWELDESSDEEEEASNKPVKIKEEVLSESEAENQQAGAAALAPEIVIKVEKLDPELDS
UniProt P08133: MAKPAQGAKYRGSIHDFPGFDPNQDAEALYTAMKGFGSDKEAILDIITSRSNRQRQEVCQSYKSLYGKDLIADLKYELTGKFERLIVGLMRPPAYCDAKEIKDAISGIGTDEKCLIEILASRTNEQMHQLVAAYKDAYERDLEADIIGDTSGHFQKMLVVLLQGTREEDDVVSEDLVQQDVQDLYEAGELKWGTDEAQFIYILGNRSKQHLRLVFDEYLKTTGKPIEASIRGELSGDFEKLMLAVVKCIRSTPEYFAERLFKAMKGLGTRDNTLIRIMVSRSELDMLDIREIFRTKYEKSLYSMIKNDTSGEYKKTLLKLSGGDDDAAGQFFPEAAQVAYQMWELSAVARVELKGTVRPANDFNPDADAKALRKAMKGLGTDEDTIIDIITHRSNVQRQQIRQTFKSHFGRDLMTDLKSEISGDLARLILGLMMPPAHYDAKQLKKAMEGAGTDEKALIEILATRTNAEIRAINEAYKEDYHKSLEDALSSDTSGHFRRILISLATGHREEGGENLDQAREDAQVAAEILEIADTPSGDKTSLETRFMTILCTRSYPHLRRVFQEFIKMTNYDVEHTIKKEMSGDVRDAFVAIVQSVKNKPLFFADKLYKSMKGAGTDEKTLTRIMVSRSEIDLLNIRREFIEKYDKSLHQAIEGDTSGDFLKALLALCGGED
UniProt Q63HQ0: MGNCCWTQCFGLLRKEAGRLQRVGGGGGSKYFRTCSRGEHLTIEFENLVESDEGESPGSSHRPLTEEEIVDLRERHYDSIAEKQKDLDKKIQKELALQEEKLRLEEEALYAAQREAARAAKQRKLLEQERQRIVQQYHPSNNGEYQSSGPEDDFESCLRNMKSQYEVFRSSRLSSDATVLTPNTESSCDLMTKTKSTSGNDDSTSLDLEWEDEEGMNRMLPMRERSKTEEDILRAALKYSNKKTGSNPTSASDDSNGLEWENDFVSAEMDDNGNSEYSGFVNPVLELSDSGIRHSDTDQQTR
UniProt P12429: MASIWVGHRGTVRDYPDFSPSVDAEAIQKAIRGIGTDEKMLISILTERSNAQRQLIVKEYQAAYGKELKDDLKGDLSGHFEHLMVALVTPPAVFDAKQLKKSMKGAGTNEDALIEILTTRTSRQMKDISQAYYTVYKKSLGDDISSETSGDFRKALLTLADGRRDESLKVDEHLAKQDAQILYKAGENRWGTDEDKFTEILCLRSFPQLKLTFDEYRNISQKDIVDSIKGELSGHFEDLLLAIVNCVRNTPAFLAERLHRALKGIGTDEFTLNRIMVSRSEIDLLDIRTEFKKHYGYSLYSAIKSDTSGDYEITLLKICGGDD
UniProt Q9BTT0: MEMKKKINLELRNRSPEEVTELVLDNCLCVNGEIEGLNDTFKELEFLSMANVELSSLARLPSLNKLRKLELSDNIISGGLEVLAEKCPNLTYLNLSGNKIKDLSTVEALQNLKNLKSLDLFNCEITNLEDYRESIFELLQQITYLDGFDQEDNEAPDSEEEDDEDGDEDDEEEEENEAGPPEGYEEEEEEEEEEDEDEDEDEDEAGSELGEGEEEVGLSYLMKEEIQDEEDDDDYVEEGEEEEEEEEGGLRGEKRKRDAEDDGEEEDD

Legend:
Assay in all cases: log2 fold change, soluble protein after heating vs DMSO (PISA); higher = thermal stabilisation; K562 lysate, 10 uM; active = over 0.2 and 3.5 SD of the protein, either way, in both replicates (recomputed)
[1] = compound: C#Cc1cccc(Nc2ncnc3cc(OCCOC)c(OCCOC)cc23)c1 [erlotinib]
Procedure, shortened: (§1)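 Pellets of K562 cells were dounce-homogenised in PBS pH 7.4 with 1 mM MgCl2, and the crude extract was held at 1 mg/mL protein for a 30 min treatment with 10 μM compound. Aliquots were heated for 3 min over 48°C-58°C and pooled before NP-40 was added to 0.5% at 4°C. The supernatant from 21,000xg for 90 min was quantified by TMTpro 16plex LC-MS/MS with channel sums equalised. Values are reported from duplicates as log-two fold change in thermal stability relative to solvent controls.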

[2] = compound: C/C(=N\NC(=O)C1=CC(=CC=C1)S(=O)(=O)N2CCOCC2)/C3=C(C=CC(=C3)Cl)O
Procedure, shortened: as §1

[3] = compound: C1=CC(=CC=C1C2=NC3=C(N2)C=C(C=C3)C(=O)N)OC4=CC=C(C=C4)Cl
Procedure, shortened: as §1

[4] = compound: C1=CC2=C(C=CC(=C2)/C=C\3/C(=O)NC(=NCC4=CC=CS4)S3)N=C1
Procedure, shortened: as §1

[5] = compound: C1=CC2=NC=CN=C2C=C1/C=C/3\C(=O)NC(=O)S3
Procedure, shortened: as §1

[6] = compound: C1=CC=C(C=C1)C2=NC(=C(N2)C3=CC=NC=C3)C4=CC(=C(C=C4)Cl)O
Procedure, shortened: as §1

[7] = compound: C1=CC=C2C(=C1)C3=NNC4=CC=CC(=C43)C2=O
Procedure, shortened: as §1

[8] = compound: C1CCN(C1)C(=O)NC2=CC=CC(=C2)NC3=NC=C(C(=N3)NCCC4=CN=CN4)Br
Procedure, shortened: as §1

[9] = compound: C1CN(CCC1(CC2=CC=C(C=C2)Cl)N)C3=NC=NC4=C3C=CN4
Procedure, shortened: as §1

[10] = compound: C1COCCN1CCN2C3=CC=CC=C3N=C2NC(=O)C4=CC(=CC=C4)[N+](=O)[O-] [IRAK-1-4 Inhibitor I]
Procedure, shortened: as §1

Measured: log2 fold change

ALG9 isoform 3 (UniProt Q9H6U8)
inactive: [1] 0.069 | [2] -0.086 | [3] 0 | [4] -0.013 | [5] -0.046 | [6] -0.023 | [7] 0.004 | [8] 0.023 | [9] -0.011 | [10] 0.087

ALG3 (UniProt Q92685)
inactive: [1] 0.19 | [2] -0.117 | [3] -0.12 | [4] -0.037 | [5] 0.056 | [6] -0.016 | [7] -0.182 | [8] -0.103 | [9] -0.037 | [10] 0.019

AMMECR1 (UniProt Q9Y4X0)
inactive: [1] 0.007 | [2] 0.003 | [3] 0.019 | [4] -0.045 | [5] 0.004 | [6] -0.009 | [7] -0.001 | [8] 0.009 | [9] 0.019 | [10] 0.002

ALG8 (UniProt Q9BVK2)
inactive: [1] 0.022 | [2] -0.102 | [3] -0.082 | [4] 0.018 | [5] 0.016 | [6] -0.062 | [7] -0.001 | [8] 0.053 | [9] 0.012 | [10] -0.007

AP1G1 isoform 2 (UniProt O43747)
inactive: [1] -0.016 | [2] -0.018 | [3] -0.007 | [4] 0.004 | [5] 0.001 | [6] 0.02 | [7] -0.008 | [8] -0.034 | [9] -0.002 | [10] 0.03

ALG12 (UniProt Q9BV10)
inactive: [1] 0.019 | [2] -0.043 | [3] -0.007 | [4] 0.01 | [5] -0.135 | [6] -0.02 | [7] 0.056 | [8] -0.017 | [9] 0.081 | [10] 0.04

ANXA4 (UniProt P09525)
inactive: [1] 0.006 | [2] 0.093 | [3] -0.007 | [4] -0.015 | [5] -0.002 | [6] -0.023 | [7] -0.024 | [8] -0.025 | [9] -0.025 | [10] -0.046

AKT1 (UniProt P31749)
inactive: [1] -0.008 | [2] 0.042 | [3] -0.004 | [4] 0.121 | [5] 0.019 | [6] 0.059 | [7] 0.018 | [8] -0.034 | [9] 0.03 | [10] -0.005

AP1G2 (UniProt O75843)
inactive: [1] 0.052 | [2] 0.016 | [3] 0.068 | [4] -0.116 | [5] -0.07 | [6] 0 | [7] 0.001 | [8] -0.003 | [9] 0.034 | [10] -0.007

ALDH1A2 (UniProt O94788)
inactive: [1] -0.023 | [2] 0.006 | [3] 0.015 | [4] -0.017 | [5] 0.008 | [6] 0.007 | [7] 0.052 | [8] 0.023 | [9] -0.004 | [10] 0.014

AP4M1 (UniProt O00189)
inactive: [1] -0.03 | [2] 0.066 | [3] -0.032 | [4] -0.013 | [5] -0.008 | [6] -0.064 | [7] -0.082 | [8] 0.038 | [9] -0.003 | [10] 0.067

ALKBH3 (UniProt Q96Q83)
inactive: [1] -0.06 | [2] -0.121 | [3] 0.021 | [4] -0.042 | [5] -0.02 | [6] 0.009 | [7] -0.009 | [8] 0.141 | [9] -0.034 | [10] -0.006

ALDH1A1 (UniProt P00352)
inactive: [1] -0.048 | [2] 0.044 | [3] -0.054 | [4] 0.048 | [5] 0.008 | [6] -0.033 | [7] 0.132 | [8] 0.027 | [9] 0.012 | [10] -0.029

AMDHD2 isoform 3 (UniProt Q9Y303)
inactive: [1] -0.013 | [2] -0.045 | [3] 0.06 | [4] -0.038 | [5] 0.028 | [6] -0.01 | [7] -0.003 | [8] 0.022 | [9] 0.044 | [10] 0.018

Retrieved one by one from above, 2 records:
ALKBH3 (UniProt Q96Q83)
inactive: [1] -0.06 | [2] -0.121 | [3] 0.021 | [4] -0.042 | [5] -0.02 | [6] 0.009 | [7] -0.009 | [8] 0.141 | [9] -0.034 | [10] -0.006

ALDH1A2 (UniProt O94788)
inactive: [1] -0.023 | [2] 0.006 | [3] 0.015 | [4] -0.017 | [5] 0.008 | [6] 0.007 | [7] 0.052 | [8] 0.023 | [9] -0.004 | [10] 0.014

Additional results follow.

ALKBH5 (UniProt Q6P6C2)
inactive: [1] 0.007 | [2] -0.126 | [3] 0.053 | [4] -0.025 | [5] -0.013 | [6] 0.053 | [7] -0.127 | [8] -0.08 | [9] 0.016 | [10] 0.079

ANKLE2 (UniProt Q86XL3)
inactive: [1] 0.022 | [2] 0.065 | [3] -0.021 | [4] -0.027 | [5] -0.028 | [6] -0.014 | [7] -0.011 | [8] -0.091 | [9] 0.006 | [10] 0.054

AP4B1 (UniProt Q9Y6B7)
inactive: [1] 0.021 | [2] -0.038 | [3] 0.016 | [4] 0.096 | [5] 0.038 | [6] 0.019 | [7] -0.022 | [8] -0.018 | [9] 0.188 | [10] 0.013

ANKMY2 (UniProt Q8IV38)
inactive: [1] -0.016 | [2] 0.027 | [3] 0 | [4] -0.011 | [5] -0.007 | [6] 0.005 | [7] 0.003 | [8] 0.016 | [9] 0.001 | [10] 0.004

ANAPC4 isoform 3 (UniProt Q9UJX5)
inactive: [1] 0.035 | [2] -0.052 | [3] -0.022 | [4] 0 | [5] -0.003 | [6] -0.001 | [7] -0.041 | [8] -0.018 | [9] 0.031 | [10] 0.019

AP2A1 (UniProt O95782)
inactive: [1] -0.015 | [2] 0.026 | [3] -0.011 | [4] 0.022 | [5] -0.027 | [6] 0.006 | [7] -0.032 | [8] -0.048 | [9] 0.008 | [10] 0.034

ALDH16A1 (UniProt Q8IZ83)
inactive: [1] -0.038 | [2] 0.007 | [3] 0.014 | [4] -0.005 | [5] 0.01 | [6] -0.04 | [7] 0.014 | [8] 0.03 | [9] -0.001 | [10] -0.004

ANXA6 (UniProt P08133)
inactive: [1] 0.019 | [2] 0.052 | [3] -0.004 | [4] -0.003 | [5] -0.011 | [6] 0.011 | [7] -0.004 | [8] 0.008 | [9] -0.018 | [10] 0.034

AP1AR (UniProt Q63HQ0)
inactive: [1] -0.198 | [2] 0.045 | [3] 0.161 | [4] 0.015 | [5] 0.042 | [6] 0.004 | [7] -0.007 | [8] 0.01 | [9] 0.049 | [10] -0.046

ANKRD54 (UniProt Q6NXT1)
inactive: [1] -0.005 | [2] 0.01 | [3] 0.122 | [4] -0.036 | [5] 0.025 | [6] 0.037 | [7] 0.02 | [8] 0.008 | [9] -0.035 | [10] 0.003

ALDH9A1 isoform 3 (UniProt P49189)
inactive: [1] 0.001 | [2] 0.002 | [3] -0.016 | [4] -0.002 | [5] -0.01 | [6] 0.018 | [7] -0.018 | [8] -0.033 | [9] 0.039 | [10] -0.011

ANXA3 (UniProt P12429)
inactive: [1] -0.014 | [2] 0.243 | [3] -0.001 | [4] 0.014 | [5] -0.041 | [6] -0.051 | [7] -0.016 | [8] -0.014 | [9] -0.012 | [10] -0.085

ANXA2 isoform 2 (UniProt P07355)
inactive: [1] -0.009 | [2] 0.041 | [3] 0.023 | [4] -0.003 | [5] 0.003 | [6] 0.004 | [7] 0.025 | [8] -0.006 | [9] -0.001 | [10] -0.01

ANP32E (UniProt Q9BTT0)
inactive: [1] 0.006 | [2] -0.006 | [3] 0.016 | [4] -0.021 | [5] 0.012 | [6] -0.004 | [7] -0.065 | [8] -0.025 | [9] 0.011 | [10] 0.023

AMPD2 (UniProt Q01433)
inactive: [1] -0.036 | [2] -0.006 | [3] 0.058 | [4] 0.009 | [5] -0.024 | [6] -0.016 | [7] 0.006 | [8] -0.026 | [9] 0.005 | [10] 0.004

ALG5 (UniProt Q9Y673)
inactive: [1] 0.08 | [2] 0.051 | [3] -0.111 | [4] 0.025 | [5] -0.054 | [6] -0.023 | [7] -0.051 | [8] -0.085 | [9] 0.069 | [10] 0.013
